Results deposited as PubChem BioAssay AID504764 (Drosophila RNAi Screening Center, 2011).
In all, the deposit lists about 22,000 reagents; below is a random part of those with a known target gene and a result. Over the whole deposit, 403 (1.9%) are marked active. 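Unnormalised raw counts per well; ratio z-scores behind the hit calls and whether each hit raises or lowers signal are not deposited.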 The numbers tell different reagents against one gene apart. Names joined by + are all predicted targets of the reagent. The record does not give: the amount of reagent.

Purpose: 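Genes whose knock-down alters Notch-dependent transcription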 (primary screen)
Cells: Drosophila Kc167 cells
Knock-down reagent: long dsRNA against Drosophila genes
Duration: about 5 days (4 days dsRNA, then 24 h after transfection)
Challenge: transfection of constitutively active membrane-tethered Notch lacking the extracellular domain, read 24 h later
Detection: 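Firefly luciferase from an E(spl)m3 reporter with active Notch, plus control-promoter and uninduced reporter wells for normalisation; unnormalised counts, duplicate wells a and b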
Scale: induced reporter light, run 1, well a and induced reporter light, run 1, well b: higher = more light from the Notch target reporter with active Notch; control promoter light, run 1, well a and control promoter light, run 1, well b: higher = more light from the viral control promoter (cell number, transfection, viability); uninduced reporter light, run 1, well a: higher = more light from the Notch target reporter without active Notch
Call rule: 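Wells with low control signal or poorly matching duplicates excluded; duplicates averaged; per source plate, z beyond ±2 for induced/control log2 ratio or beyond ±1.8 for induced/uninduced marks a hit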
Calls: active = modifier hit (raised or lowered Notch signal); inactive = not a hit

| Target gene | dsRNA no. | induced reporter light, run 1, well a | induced reporter light, run 1, well b | control promoter light, run 1, well a | control promoter light, run 1, well b | uninduced reporter light, run 1, well a | Call |
| --- | --- | --- | --- | --- | --- | --- | --- |
| CG9806 | 1 | 94580 | 1.08e5 | 1.82e5 | 1.84e5 | 7460 | inactive |
| CG11723 | 1 | 1.09e5 | 2.09e5 | 2.22e5 | 2.08e5 | 17765 | inactive |
| CG6180 | 1 | 2.40e5 | 1.93e5 | 1.97e5 | 2.01e5 | 15130 | inactive |
| CG15577 | 1 | 1.43e5 | 1.96e5 | 3.79e5 | 3.57e5 | 11735 | inactive |
| Ugt307A1 | 1 | 1.66e5 | 1.30e5 | 2.11e5 | 2.50e5 | 8475 | active |
| Hey | 1 | 9235 | 8540 | 11445 | 10130 | 2982 | inactive |
| gol | 1 | 2.05e5 | 2.40e5 | 1.87e5 | 2.35e5 | 14245 | inactive |
| dos | 1 | 9050 | 8215 | 4990 | 4545 | 3992 | inactive |
| dos | 2 | 98225 | 1.24e5 | 95705 | 81305 | 6930 | active |
| CG5096 | 1 | 1.58e5 | 2.18e5 | 1.02e5 | 1.35e5 | 21870 | inactive |
| CG3609 | 1 | 1.15e5 | 99015 | 95105 | 62155 | 9005 | inactive |
| RpL7-like + CG34164 | 1 | 1.21e5 | 1.24e5 | 1.08e5 | 1.13e5 | 11105 | inactive |
| RpL7-like + CG34164 | 2 | 1.44e5 | 1.50e5 | 1.63e5 | 1.82e5 | 11985 | inactive |
| grn | 1 | 2750 | 2340 | 2578 | 2342 | 2860 | inactive |
| grn | 2 | 94245 | 73255 | 84800 | 58865 | 7820 | inactive |
| CG18682 (retired record) | 1 | 1.50e5 | 1.33e5 | 1.76e5 | 1.95e5 | 14110 | inactive |
| CG18682 (retired record) | 2 | 1.33e5 | 1.25e5 | 1.99e5 | 1.67e5 | 11455 | inactive |
| CG4911 | 1 | 1.15e5 | 1.11e5 | 66115 | 36960 | 8030 | inactive |
| CG14570 | 1 | 1.39e5 | 1.07e5 | 1.36e5 | 1.27e5 | 8160 | inactive |
| Cp190 | 1 | 1.09e5 | 1.19e5 | 94030 | 95640 | 9950 | inactive |
| Trmt61 | 1 | 1.29e5 | 1.24e5 | 1.84e5 | 1.79e5 | 11185 | inactive |
| CG1640 | 1 | 1.60e5 | 1.96e5 | 2.15e5 | 2.23e5 | 12920 | inactive |
| CG11899 | 1 | 1.24e5 | 1.12e5 | 1.59e5 | 1.56e5 | 9535 | inactive |
| CG16959 | 1 | 1.14e5 | 1.20e5 | 66055 | 75145 | 9680 | inactive |
| dsh | 1 | 99675 | 96745 | 1.77e5 | 1.77e5 | 7775 | inactive |
| Vps29 | 1 | 1.63e5 | 2.18e5 | 2.20e5 | 2.22e5 | 16590 | inactive |
| Pdp1 | 1 | 3442 | 3420 | 4600 | 3765 | 4495 | inactive |
| Pdp1 | 2 | 2078 | 1620 | 2430 | 2175 | 2535 | inactive |
| Pdp1 | 3 | 2.24e5 | 2.26e5 | 2.68e5 | 2.02e5 | 8940 | inactive |
| BHD | 1 | 1.19e5 | 1.28e5 | 71660 | 54865 | 8832 | inactive |
| mthl5 | 1 | 66840 | 61495 | 72280 | 55040 | 2665 | inactive |

Sorted by “uninduced reporter light, run 1, well a” (low to high): 4 of the entries above.
| Target gene | dsRNA no. | induced reporter light, run 1, well a | induced reporter light, run 1, well b | control promoter light, run 1, well a | control promoter light, run 1, well b | uninduced reporter light, run 1, well a | Call |
| --- | --- | --- | --- | --- | --- | --- | --- |
| Hey | 1 | 9235 | 8540 | 11445 | 10130 | 2982 | inactive |
| Ugt307A1 | 1 | 1.66e5 | 1.30e5 | 2.11e5 | 2.50e5 | 8475 | active |
| CG15577 | 1 | 1.43e5 | 1.96e5 | 3.79e5 | 3.57e5 | 11735 | inactive |
| CG6180 | 1 | 2.40e5 | 1.93e5 | 1.97e5 | 2.01e5 | 15130 | inactive |

Additional records:
| Target gene | dsRNA no. | induced reporter light, run 1, well a | induced reporter light, run 1, well b | control promoter light, run 1, well a | control promoter light, run 1, well b | uninduced reporter light, run 1, well a | Call |
| --- | --- | --- | --- | --- | --- | --- | --- |
| Pbp45 | 1 | 2.38e5 | 2.68e5 | 2.14e5 | 2.25e5 | 15660 | inactive |
| CG11674 | 1 | 1.93e5 | 1.46e5 | 2.21e5 | 1.77e5 | 11115 | inactive |
| cGlr1 | 1 | 1.46e5 | 1.04e5 | 1.42e5 | 1.58e5 | 12900 | inactive |
| Ugt49B2 | 1 | 1.88e5 | 1.67e5 | 1.86e5 | 2.23e5 | 13115 | inactive |
| fdl | 1 | 73390 | 86865 | 1.41e5 | 1.04e5 | 7840 | inactive |
| Leash | 1 | 70565 | 83145 | 86470 | 61475 | 3980 | inactive |
| Inx5 | 1 | 1.05e5 | 99975 | 1.30e5 | 1.52e5 | 13880 | inactive |
| CG31482 | 1 | 79160 | 1.00e5 | 80855 | 60815 | 4528 | inactive |
| Or67a | 1 | 1.48e5 | 1.37e5 | 1.63e5 | 1.92e5 | 7785 | inactive |
| CG31204 | 1 | 1.74e5 | 1.42e5 | 2.45e5 | 2.74e5 | 13042 | inactive |
| CG7379 | 1 | 2.10e5 | 2.04e5 | 2.97e5 | 2.87e5 | 17940 | inactive |
| CG34038 | 1 | 1.84e5 | 2.04e5 | 2.19e5 | 2.44e5 | 10420 | inactive |
| Ir54a + sub | 1 | 1.41e5 | 74225 | 1.13e5 | 1.08e5 | 6960 | inactive |
| CG3760 | 1 | 1.92e5 | 1.30e5 | 2.09e5 | 2.05e5 | 12110 | inactive |
| rut | 1 | 2985 | 2415 | 3850 | 4015 | 3445 | inactive |
| CG5084 | 1 | 25130 | 34035 | 33720 | 38955 | 4438 | inactive |
| Marf1 | 1 | 45735 | 52480 | 39225 | 35875 | 2585 | inactive |
| Marf1 | 2 | 80965 | 85230 | 71230 | 78280 | 8680 | inactive |
| CG33325 | 1 | 1.42e5 | 1.31e5 | 1.71e5 | 1.80e5 | 14235 | inactive |
| Cen | 1 | 2.19e5 | 2.70e5 | 1.85e5 | 1.87e5 | 15405 | inactive |
| ClpP | 1 | 1.70e5 | 1.88e5 | 1.70e5 | 1.90e5 | 14640 | inactive |
| Iris | 1 | 2.19e5 | 2.09e5 | 2.58e5 | 2.46e5 | 16615 | inactive |
| otp | 1 | 33335 | 29995 | 25800 | 30515 | 2215 | inactive |
| otp | 2 | 9460 | 8905 | 5970 | 5240 | 1450 | inactive |
| Jhbp3 | 1 | 1.09e5 | 1.34e5 | 1.57e5 | 1.01e5 | 11275 | inactive |
| CG14636 | 1 | 1.14e5 | 84780 | 98815 | 1.02e5 | 7165 | inactive |
| Golgin245 | 1 | 81680 | 83180 | 70130 | 69515 | 6442 | inactive |
| CG31465 | 1 | 2.08e5 | 1.82e5 | 1.98e5 | 2.40e5 | 16165 | inactive |
| Sodh2 | 1 | 63845 | 76695 | 83560 | 79645 | 4835 | inactive |
| Cyp4ac1 | 1 | 2.14e5 | 2.13e5 | 2.08e5 | 1.80e5 | 17570 | inactive |
| mRpL14 | 1 | 1.06e5 | 1.03e5 | 1.57e5 | 1.90e5 | 7632 | inactive |
| gw | 1 | 47145 | 48930 | 92665 | 1.17e5 | 4175 | active |
| gw | 2 | 10725 | 10882 | 22010 | 24180 | 1825 | inactive |
